# For at least one compound, name, drawing or mass did not settle the structure.
# Molecular target: T1, mouse P2X1 receptor (Mus musculus, UniProt P51576)
# T1 construct: EST clones containing full-length cDNAs of mouse P2X1 (clone ID: 4189541) and human P2X7 receptor (clone ID: 5286944); host or cells: Xenopus oocytes (cRNA injected)
# T1 sequence (P51576 1-399): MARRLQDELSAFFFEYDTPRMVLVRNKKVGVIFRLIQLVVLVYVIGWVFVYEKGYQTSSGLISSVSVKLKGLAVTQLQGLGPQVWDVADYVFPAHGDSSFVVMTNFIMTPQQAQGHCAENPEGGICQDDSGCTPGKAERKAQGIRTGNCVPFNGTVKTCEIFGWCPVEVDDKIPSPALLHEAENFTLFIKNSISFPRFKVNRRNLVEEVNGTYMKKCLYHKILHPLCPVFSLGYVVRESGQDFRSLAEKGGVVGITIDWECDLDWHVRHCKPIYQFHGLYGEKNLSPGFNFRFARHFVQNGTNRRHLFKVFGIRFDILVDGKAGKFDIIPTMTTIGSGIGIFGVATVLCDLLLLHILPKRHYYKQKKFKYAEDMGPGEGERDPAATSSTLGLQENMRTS
# Assay: Two-electrode voltage clamp, ATP-induced ion current in Xenopus oocytes expressing mouse P2X1
# Format: cell-based
# Conditions: concentration-response curve, 2 μM ATP, mean of four observations
# Method: 1-1. Antagonistic Activity at Recombinant Mouse P2X1 and Human P2X3 Receptors
# Xenopus oocytes were harvested and prepared with method as previously described in publications. Defolliculated oocytes were injected cytosolically with mouse P2X1 and human P2X3 receptor cRNA ([…], 1 μg/mL), respectively, incubated for 24 hrs at 18° C. in Barth's solution and kept for up to 12 days at 4° C. until used in electrophysiological experiments. ATP-activated membrane currents (Vh=−70 mV) were recorded from cRNA-injected oocytes using the twin-electrode voltage-clamp technique (Axoclamp 2B amplifier). Voltage recording (1-2 MΩ tip resistance) and current-recording microelectrodes (5 MΩ tip resistance) were filled with 3.0 M KCl. Oocytes were held in an electrophysiological chamber and superfused with Ringer's solution (5 mL/min, at 18° C.) containing (mM) NaCl, 110; KCl, 2.5; HEPES, 5; BaCl2, 1.8, adjusted to pH 7.5. ATP was superfused over the oocytes for 60-120s then washed out for a period of 20 min. For inhibition curves, data were normalized to the current evoked by ATP, at pH 7.5. Test substances were added for 20 min prior to ATP exposure; all peptides were tested for reversibility of their effects. […]
compound,measurement,value
"Cc1nc(/N=N/c2ccc(C(=O)O)cc2)c(COP(=O)(O)O)c(C=O)c1O [MRS2159, reference compound]",IC50 value,32 nM
